Out of some 210,000 compounds screened, about 5,900 (2.8%) were called active. Roughly 5% stayed inconclusive and do not appear here. The call rests on the fitted dose curve; in most records, active means well fitted activation curve with a large enough effect; inconclusive means small, poorly fitted or top-dose-only effect; inactive means no such curve, though single readings can be large or run the other way. The list shows a part of the results, in another mix than the full data. The source gives no active or inactive call for entries shown without one.
Assay: qHTS Assay for Enhancers of SMN2 Splice Variant Expression; further: nearly all actives have a fitted effect of over 55% in size; on activity change, positive = activation: % of control where 0% means no effect
Details: HEK293 SMN2-luciferase splicing reporter, luminescence, 30-36 h; activity change, positive = activation: at 46.1 µM (top of the series) unless noted
From the text: NIH Chemical Genomics Center [NCGC] NIH Molecular Libraries Probe Production centers Network [MLPCN] MLPCN Grant: R03 MH084179-01 Assay Submitter (PI): Elliot Androphy NCGC Assay Overview: Spinal muscular atrophy (SMA) is caused by insufficient levels of the survival motor neuron protein SMN. The SMN locus on chromosome 5q13 contains two inverted copies of SMN called SMN1 and SMN2 which are 99% identical at the amino acid level. SMN1 is a fully functional protein and SMN2 skips exon 7 90% of the time. Skipping of exon 7 produces non-functional protein product. 10% of the SMN2 protein includes exon 7 and is fully functional. In the SMA disease state, mutations in the SMN1 locus are the cause of the disease state. Because only 10% of SMN2 is of the fully functional form, it is not sufficient to overcome the deficiency produced by the loss of the SMN1 product. A therapy that either increase the amount of SMN2 product made or to increase the inclusion of exon 7 has been proposed for the treatment of SMA. We have designed an assay to identify small molecules that can increase the amount of functional SMN2 product by appending a luciferase reporter gene after the native SMN2 gene, such that inclusion of exon 7 in the expressed product places the luciferase sequence in frame, thus generating functional luciferase enzyme.
NCGC Assay Protocol Summary: This screen utilizes a luciferase reporter gene assay, combining the promoter and splicing based cassettes in tandem with the major portion of the native SMN2 cDNA, and then transfected into HEK293 cells. Compounds that increase luciferase signal presumably enhance expression of the functional SMN2 splice variant. Passaging media contained DMEM w/ glutamax (+phenol red) 10% FCS, 1x pen/strep, 200 ug/ml hygro, 1x sodium pyruvate. Assay media contained DMEM w/ glutamax (-phenol red) 10% FCS, 1x pen strep, 1x pyruvate Sequence, Parameter, Value, Description (1) Cells, […], 2000 cells/well, 1536 TC treated White solid bottom plate (2) Time, 10-12 hours, 37C 5% CO2 (3) Compound, 23 nl, MLSMR Library (4) Control Compound, 23 nL, Sodium butyrate st 4.5mM (final) conc (5) Time, 30-36 hours, 37C 5% CO2 (6) Reagent, 3 ul, One Glo (TM) from Promega (7) Time, 5-15 minutes, Room temp (8) Detector, Viewlux: luminescent read, 60 second integration, high speed 2x binning Keywords: Spinal muscular atrophy, SMA, SMN2, high throughput screening, MLSMR, MLPCN, NIH Roadmap, qHTS and NCGC
Potency means the concentration at half of the fitted maximal effect.

SMILES	activity change, positive = activation	Potency
CC1=Nc2cc(C(=O)NCCCOC(C)C)ccc2Sc2ccccc21	-33.4%	–
Cc1cccc(Nc2nnc(SCC(=O)c3ccc(Br)s3)s2)c1C	-60.1%	–
CCOc1cc(C(=O)Nc2ccccc2F)cc(Br)c1OCC	inactive: -11.4%	–
COc1ccc(-c2cc(C)nc3nc(N)nn23)cc1	38.2%	–
CC(C)Cn1c(-c2ccccc2)nc(=S)c2c1CCCC2	32%	–
O=C1C=C(NCCN2CCOCC2)C(=O)c2cnccc21	inactive: -101%	–
O=C(c1cccc(F)c1)N1CCC[C@@]2(CCN(c3ccccc3)C2)C1	inactive: -82.8%	–
CCOC(=O)c1cnc(SCc2ccc(C(C)(C)C)cc2)nc1N	inactive: -40.2%	–
Cc1cc(C(C)(C)C)cc(S(=O)(=O)NCCO)c1C	40.4%	–
OC(c1ccc(OCc2ccccc2)cc1)c1nnc(-c2ccccc2)o1 (stereo not given)	-75%	–
c1ccc(CCNc2ncnc3ccccc23)cc1	89.4%	–
CCOC(=O)c1c(NC(=O)c2cc3ccccc3c(=O)o2)sc2c1CCC(C)C2 (stereo not given)	31.7%	–
CCOC(=O)c1[nH]c(C)c(C(=O)N(C)C)c1C	34.2%	–
CC(C)(C)OC(=O)N1CCC(c2nnc(SCc3cccc(Cl)c3)o2)CC1	inactive: -44.6%	–
COC(=O)c1c(C#N)c(N)nc2c1CCC2	35.8%	–
CCOC(=O)CC(=O)CSc1nc2sc(C)cc2c(=O)n1Cc1ccco1	-35%	–
COC(=O)C1CCN(C(=O)/C=C/c2ccc(OC)cc2)CC1	45%	–
CC(C)(C)OC(=O)N1CCC[C@H]1C(=O)NCC1CCC(C(=O)O)CC1 (stereo not given in full)	inactive: -28.9%	–
Cc1ccc(-c2noc(C3CCCN(C(=O)c4c(F)cccc4F)C3)n2)cc1 (stereo not given)	inactive: -35.1%	–
Cc1ccc(C(=O)CC2(O)C(=O)N(Cc3ccccc3)c3ccccc32)o1 (stereo not given)	–	active: 11.2 µM
Cc1ccc(S(=O)(=O)Nc2ccncc2)c(C)c1N(C)S(=O)(=O)c1ccc(Cl)cc1	-36.6%	–
CC(C)Oc1ccc(NC(=O)c2ccncc2)cc1	-41%	–
Cc1sc2nc(CN(C(=O)NC3CCCCC3)C3CCCC3)[nH]c(=O)c2c1C	-35.9%	–
CCC(CC)C(=O)Nc1nc(-c2ccc3c(c2)CCN3C(=O)C2CC2)c(C)s1	inactive: -30.3%	–
C=CCn1c(SCC(N)=O)nc(C)cc1=O	24.8%	–
CCOc1ccc(NC(=O)C2CC(C)=C(C)CC2C(=O)O)cc1 (stereo not given)	35.8%	–
COCCn1c(-c2cc(OC)c(OC)c(OC)c2)nc2oc3ccccc3c(=O)c2c1=O	–	active: 14.1 µM
CCOc1ccc(C(=O)CCC(=O)NC(CC(C)C)C(=O)OC)cc1 (stereo not given)	11.9%	–

SMILES	activity change, positive = activation	Potency
COc1cnc(-c2ccccn2)nc1Sc1ccc(C)cc1	inactive: -104%	–
O=C(COc1ccc(S(=O)(=O)NC2CCCC2)cc1)N1CCCCCC1	36.1%	–
Cc1oc(-c2ccccc2)cc1C(=O)Nc1cccc(C(=O)O)c1	30.9%	–
CCNc1nc(N)nc(Oc2ccc(OCCOc3ccccc3)nn2)n1	76.1%	–
CCCCN(C)C(=S)Nc1ccsc1C(=O)OC	-83.9%	–
COc1cccc(C(=O)N2c3ccccc3Sc3ccccc32)c1	-45.1%	–
O=C(Cn1cc(SCc2cccc(Cl)c2)c2ccccc21)N1CCOCC1	118%	–
Cc1sc2ncnc(N[C@@H](Cc3c[nH]c4ccccc34)C(=O)O)c2c1C	17.6%	–
O=C(Nc1ccc2c(c1)CCC2)c1cnccn1	–	active: 12.6 µM
N#CC(Sc1ccccn1)c1ccc(Cl)cc1 (stereo not given)	32.1%	–
COCCNC(=O)c1noc2c1CCc1cc(OC)ccc1-2	–	active: 7.94 µM
O=C(C1CCC1)N1CCc2cc(S(=O)(=O)NCc3cccnc3)ccc21	-45.5%	–
Cc1cc(/C=C(\C#N)C(=O)NC2CC2)c(C)[nH]1	–	active: 11.2 µM
CCOc1ccc2nc(SC3CC(=O)N(c4ccc(C)cc4)C3=O)sc2c1 (stereo not given)	inactive: -91.6%	–
COc1cc(O)c2c(=O)c3c(OC)c(O)ccc3oc2c1	92.3%	–
O=C(Nc1ccc(Cl)c(Cl)c1)Nc1ccc(N2CCCC2)c(S(=O)(=O)Nc2ccccc2Cl)c1	inactive: -46%	–
CCn1c(=O)[nH]c2cc(C(=O)N3CCN(c4ccccc4)CC3)ccc2c1=O	46.6%	–
CCN(C(=O)c1ccc(C(C)(C)C)cc1)c1nnc(Cn2nnc3ccccc32)s1	inactive: -59%	–
CCC(C(=O)Nc1cc(C)nn1-c1nc(C)cc(C)n1)c1ccccc1 (stereo not given)	-69%	–
Cc1nnc(-c2cnn(C)c2N)n1Cc1cccc(Cl)c1	25.2%	–
CCOC(=O)CNC(=O)CSc1nc(N)cc(N)n1	38.8%	–
OC(Cn1cncn1)(c1ccccc1)c1ccccc1	41.5%	–
O=C(Nc1ccccc1O)c1cc(S(=O)(=O)N2CCCC2)ccc1Cl	inactive: -31.9%	–
COc1ccc(/C=N/NC(=O)CO/N=C(\C)c2cccs2)cc1	inactive: -35.6%	–
CC(C)(C)c1ccc(CN(Cc2ccccc2)C(c2ccccn2)c2nnnn2C(C)(C)C)cc1 (stereo not given)	-37.9%	–
COc1cccc(C(=O)Nc2cnn(C(C)C)c2)c1	123%	–
Cc1ccc(/C=N\NC(=O)COc2ccc(C)cc2[N+](=O)[O-])cc1	inactive: -9.1%	–

Molecules shown so far that contain a furan ring, fused or not, in the order listed:
SMILES	activity change, positive = activation	Potency
CCOC(=O)CC(=O)CSc1nc2sc(C)cc2c(=O)n1Cc1ccco1	-35%	–
Cc1ccc(C(=O)CC2(O)C(=O)N(Cc3ccccc3)c3ccccc32)o1 (stereo not given)	–	active: 11.2 µM
Cc1oc(-c2ccccc2)cc1C(=O)Nc1cccc(C(=O)O)c1	30.9%	–

Source: PubChem BioAssay AID1458 (National Center for Advancing Translational Sciences (NCATS), 2008)
